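Whole-cell assay for inhibitors of Mycobacterium tuberculosis growth, labelled Cornell in the record; the read-out is not stated. The concentration is filed as 10 mM, unlikely as a test dose, so the dose is not known. Higher means stronger inhibition (inferred from two other growth screens of the library). About 53,000 compounds were tested under these conditions; 1.7% (about 900) showed 50% or more at least once.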

Values are the deposited “Percent Effect”, in %.
The controls that fix the scale are not given in the record; negative values are as filed.
The compounds are a random part of those screened.

{"compound": "Cc1cccc(CN2CCC3(CCCN(C(=O)c4ccsc4)C3)C2=O)n1.O=C(O)C(F)(F)F", "stereo": "stereo not drawn", "Percent Effect": 6.948}
{"compound": "CO[C@@H]1CN(c2ccccc2)S(=O)(=O)[C@@]12CCN(Cc1ccccc1)C2", "Percent Effect": 18.56}
{"compound": "NC(=O)Cn1ccc(NC(=O)C2(c3ccc(F)cc3)CC2)n1", "Percent Effect": -8.167}
{"compound": "O=C(O)C(F)(F)F.O=C(O)C(F)(F)F.[H][C@@]12CCN(Cc3cccc(C#N)c3)[C@@]1([H])CC(=O)N2CCN1CCCC1", "Percent Effect": 30.92}
{"compound": "O=C1N(Cc2ccc(F)c(F)c2)CCCC1(O)CNCc1ncc[nH]1", "stereo": "stereo not drawn", "Percent Effect": -21.79}
{"compound": "CCC(C)c1ccc(NC(=O)C2CCN(C(=O)COC)CC2)cc1", "stereo": "stereo not drawn", "Percent Effect": 1.841}
{"compound": "CCn1ccnc1S(=O)(=O)Cc1ccc(C(N)=O)cc1", "Percent Effect": 1.73}
{"compound": "CCC(=O)N1CCCC(c2nc(N(C)C)ncc2-c2ccc(F)cc2)C1", "stereo": "stereo not drawn", "Percent Effect": 78.09}
{"compound": "CCC(CC)C(=O)N1CCC(c2nn(CCN)c3nccnc23)C1", "stereo": "stereo not drawn", "Percent Effect": -6.547}
{"compound": "Cc1oncc1C(=O)NCC1(O)CCc2ccccc2C1", "stereo": "stereo not drawn", "Percent Effect": -8.183}
{"compound": "NC(=O)C1CN(c2ccc3c(Cl)ccnc3c2F)CCO1", "stereo": "stereo not drawn", "Percent Effect": 4.74}
{"compound": "Cc1nc(C)n(CC2CCCN(Cc3cccc(F)c3F)C2)n1", "stereo": "stereo not drawn", "Percent Effect": 15.45}
{"compound": "Cc1noc(C)c1-c1cccc(CC2CCN(C(=O)CCC(=O)O)C2)n1", "stereo": "stereo not drawn", "Percent Effect": 4.35}
{"compound": "COc1ccc(-c2nc3c([nH]2)CCCNC3=O)cc1OC", "Percent Effect": 1.266}
{"compound": "C[C@@H]1CN(C2CCN(Cc3nn(C)c4cccc(Cl)c34)CC2)C[C@H](C)O1", "Percent Effect": -20.95}
{"compound": "N#Cc1ccnc(N2CCN(CC(O)c3c(F)cccc3F)CC2)c1", "stereo": "stereo not drawn", "Percent Effect": 4.339}
{"compound": "CCCc1noc(CN2CCOCC2C)n1", "stereo": "stereo not drawn", "Percent Effect": -26.04}
{"compound": "N#CCSCCCN1CCN(C(=O)c2cccc(Cl)c2)CC1", "Percent Effect": 18.37}
{"compound": "CC(C)n1cnc(C2CN(C)c3ccc(C(=O)NC4CCCC4)cc32)n1", "stereo": "stereo not drawn", "Percent Effect": 23.76}
{"compound": "CC(C)Oc1cc(N2C[C@H](C3CC3)[C@@H](N)C2)nc(N)n1", "Percent Effect": -44.48}
{"compound": "COc1cccc(CN(C)C(=O)CN2CC(n3nc(C)cc3C)C2)c1", "Percent Effect": 24.75}
{"compound": "CC(C)C(=O)Nc1ccc2c(c1)ncn2CC(=O)NCCN(C)C", "Percent Effect": -8.108}
{"compound": "O=C(O)C(F)(F)F.[H][C@@]12CCN(CCOCc3ccccc3)[C@]1([H])CC[C@@H](C(=O)N1CCCC1)O2", "Percent Effect": -22.12}
{"compound": "CCCS(=O)(=O)NCCc1ncc(C)s1", "Percent Effect": 22.51}
{"compound": "CN1CCN(Cc2cccnc2)Cc2cccnc21", "Percent Effect": 0.1765}
{"compound": "COCc1nc(CNc2cc(C)nc(N3CCCCC3)n2)no1", "Percent Effect": -11.46}
{"compound": "[H][C@@]12OCCN(S(=O)(=O)C3CC3)[C@@]1([H])CC[C@H]2OCC(C)C", "Percent Effect": 21.81}
{"compound": "COCCn1cc(NC(=O)NCC2CCN(c3ccccc3)C2)cn1", "stereo": "stereo not drawn", "Percent Effect": -60.72}
{"compound": "Cc1ccccc1CC1(CO)CCCN(c2ncnc3sccc23)C1", "stereo": "stereo not drawn", "Percent Effect": 79.2}
{"compound": "O=C(CN1CCCC(Cn2cncn2)C1)NCCCc1ccccc1", "stereo": "stereo not drawn", "Percent Effect": -9.216}
{"compound": "COCCN(Cc1sccc1C)C(=O)c1c(O)cccc1F", "Percent Effect": 1.049}
{"compound": "COc1ccccc1[C@@H]1CN(Cc2ccncc2)C[C@H]1C(=O)O", "Percent Effect": 18.15}
{"compound": "CCOc1cc(CNC(=O)NC2CC=CC2)ccc1OC(F)F", "Percent Effect": 33.61}
{"compound": "CCN1CCN(S(=O)(=O)c2cc(Cl)c(Cl)cc2C)CC1", "Percent Effect": 17.49}
{"compound": "NC(=O)C1CCN(c2nc3nccc(-c4cccnc4)c3c(=O)[nH]2)CC1", "Percent Effect": -16.53}
{"compound": "OC1(Cn2ccc3ccncc32)CCN(Cc2ccccn2)CC1", "Percent Effect": 1.45}
{"compound": "COCC(=O)N1CCCC(Cc2cnc(-c3c(C)n[nH]c3C)cn2)C1", "stereo": "stereo not drawn", "Percent Effect": 3.191}
{"compound": "Cc1c(Cl)cccc1NCc1nc2n(n1)CCCCC2", "Percent Effect": 7.457}
{"compound": "CN(C(=O)C1CC(=O)N(CCc2ccccc2)C1)c1nccs1", "stereo": "stereo not drawn", "Percent Effect": 12.45}
{"compound": "COC(=O)N1CCCCC1C(=O)N1CCN(c2ncccc2C)CC1", "stereo": "stereo not drawn", "Percent Effect": 19.18}
{"compound": "[H][C@]12CC[C@]([H])(CN(C(=O)c3ccc(C(C)=O)s3)C1)N(CC1CCC1)C2", "Percent Effect": 18.84}
{"compound": "CCn1cc(NC(=O)C2CCN(CCOC(C)C)CC2)cn1", "Percent Effect": -23.82}
{"compound": "COc1ccccc1C(=O)N1CCC(Oc2ccc(C#N)cn2)CC1", "Percent Effect": 16.46}
{"compound": "CCc1nsc(N2CCn3c(nnc3-c3ccccc3)C2)n1", "Percent Effect": -8.752}
{"compound": "O=C(O)C(F)(F)F.[H][C@@]12CCN(Cc3ccoc3)C[C@@]1([H])O[C@H](C(=O)N1CCCC1)C2", "Percent Effect": -11.05}
{"compound": "CC(C)n1cc(S(=O)(=O)NCCc2nnc3ccccn23)cn1", "Percent Effect": -3.845}
{"compound": "O=S(=O)(Cc1ccccc1)NCC1CCCN(Cc2cccs2)C1", "stereo": "stereo not drawn", "Percent Effect": 12.04}
{"compound": "CCCOC(=O)N1CCC(c2nnc(Cn3cccn3)n2C2CC2)CC1", "Percent Effect": -28.35}

The first 6 entries again:

compound,Percent Effect
Cc1cccc(CN2CCC3(CCCN(C(=O)c4ccsc4)C3)C2=O)n1.O=C(O)C(F)(F)F (stereo not drawn),6.948%
CO[C@@H]1CN(c2ccccc2)S(=O)(=O)[C@@]12CCN(Cc1ccccc1)C2,18.56%
NC(=O)Cn1ccc(NC(=O)C2(c3ccc(F)cc3)CC2)n1,-8.167%
O=C(O)C(F)(F)F.O=C(O)C(F)(F)F.[H][C@@]12CCN(Cc3cccc(C#N)c3)[C@@]1([H])CC(=O)N2CCN1CCCC1,30.92%
O=C1N(Cc2ccc(F)c(F)c2)CCCC1(O)CNCc1ncc[nH]1 (stereo not drawn),-21.79%
CCC(C)c1ccc(NC(=O)C2CCN(C(=O)COC)CC2)cc1 (stereo not drawn),1.841%

Data taken from ChEMBL document CHEMBL3988442, “University of Dundee, Small-Polar-MMV Screening Library” (2021).